Results published in PMC12442307.
Results are given in words; binding and its absence hold for the method and conditions named. In cells and extracts the contact can be indirect. These calls come from enrichment with a bait or labelling near it, and not all partners need be listed. Where a sequence is shown, tags or fusion partners need not be part of it.

T1: GFP-CTPS1 (N-terminal GFP-tagged CTP synthetase 1) (human) (UniProt P17812)
T1 sequence: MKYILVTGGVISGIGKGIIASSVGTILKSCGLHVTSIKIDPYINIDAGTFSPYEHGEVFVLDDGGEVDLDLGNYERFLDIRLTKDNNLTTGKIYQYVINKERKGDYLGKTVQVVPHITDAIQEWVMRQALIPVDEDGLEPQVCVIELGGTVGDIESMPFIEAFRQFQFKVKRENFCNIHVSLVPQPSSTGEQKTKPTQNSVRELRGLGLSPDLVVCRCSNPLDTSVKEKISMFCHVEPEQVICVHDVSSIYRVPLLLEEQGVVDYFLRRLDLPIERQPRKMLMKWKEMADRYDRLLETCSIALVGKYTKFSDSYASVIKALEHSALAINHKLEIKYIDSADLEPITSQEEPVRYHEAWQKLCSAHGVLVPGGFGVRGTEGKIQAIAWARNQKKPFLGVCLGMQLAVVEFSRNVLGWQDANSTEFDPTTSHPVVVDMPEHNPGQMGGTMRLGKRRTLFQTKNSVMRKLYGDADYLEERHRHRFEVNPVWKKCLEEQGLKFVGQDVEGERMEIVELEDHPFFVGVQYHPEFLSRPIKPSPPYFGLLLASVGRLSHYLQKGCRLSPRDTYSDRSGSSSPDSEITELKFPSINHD


What follows are binders tested against T1, GFP-CTPS1 (N-terminal GFP-tagged CTP synthetase 1) (human) (assay: affinity purification with mass spectrometry; GFP-Trap agarose beads, 90 min, on lysates of CTPS1-KO HEK cells stably expressing GFP-CTPS1, compared with GFP alone; lysis in 20 mM Tris-HCl pH 7.5, 1% NP-40, 300 mM NaCl adjusted to 150 mM; quantitative label-free LC-MS/MS, four replicates).

binding	Binder
binds	C14orf166 (protein, UniProt Q9Y224 1-244) MFRRKLTALDYHNPAGFNCKDETEFRNFIVWLEDQKIRHYKIEDRGNLRNIHSSDWPKFFEKYLRDVNCPFKIQDRQEAIDWLLGLAVRLEYGDNAEKYKDLVPDNSKTADNATKNAEPLINLDVNNPDFKAGVMALANLLQIQRHDDYLVMLKAIRILVQERLTQDAVAKANQTKEGLPVALDKHILGFDTGDAVLNEAAQILRLLHIEELRELQTKINEAIVAVQAIIADPKTDHRLGKVGR
binds	RTCB (protein, UniProt Q9Y3I0 1-505) MSRSYNDELQFLEKINKNCWRIKKGFVPNMQVEGVFYVNDALEKLMFEELRNACRGGGVGGFLPAMKQIGNVAALPGIVHRSIGLPDVHSGYGFAIGNMAAFDMNDPEAVVSPGGVGFDINCGVRLLRTNLDESDVQPVKEQLAQAMFDHIPVGVGSKGVIPMNAKDLEEALEMGVDWSLREGYAWAEDKEHCEEYGRMLQADPNKVSARAKKRGLPQLGTLGAGNHYAEIQVVDEIFNEYAAKKMGIDHKGQVCVMIHSGSRGLGHQVATDALVAMEKAMKRDKIIVNDRQLACARIASPEGQDYLKGMAAAGNYAWVNRSSMTFLTRQAFAKVFNTTPDDLDLHVIYDVSHNIAKVEQHVVDGKERTLLVHRKGSTRAFPPHHPLIAVDYQLTGQPVLIGGTMGTCSYVLTGTEQGMTETFGTTCHGAGRALSRAKSRRNLDFQDVLDKLADMGIAIRVASPKLVMEEAPESYKNVTDVVNTCHDAGISKKAIKLRPIAVIKG
binds	SUGP1 (protein, UniProt Q8IWZ8 1-645) MSLKMDNRDVAGKANRWFGVAPPKSGKMNMNILHQEELIAQKKREIEAKMEQKAKQNQVASPQPPHPGEITNAHNSSCISNKFANDGSFLQQFLKLQKAQTSTDAPTSAPSAPPSTPTPSAGKRSLLISRRTGLGLASLPGPVKSYSHAKQLPVAHRPSVFQSPDEDEEEDYEQWLEIKVSPPEGAETRKVIEKLARFVAEGGPELEKVAMEDYKDNPAFAFLHDKNSREFLYYRKKVAEIRKEAQKSQAASQKVSPPEDEEVKNLAEKLARFIADGGPEVETIALQNNRENQAFSFLYEPNSQGYKYYRQKLEEFRKAKASSTGSFTAPDPGLKRKSPPEALSGSLPPATTCPASSTPAPTIIPAPAAPGKPASAATVKRKRKSRWGPEEDKVELPPAELVQRDVDASPSPLSVQDLKGLGYEKGKPVGLVGVTELSDAQKKQLKEQQEMQQMYDMIMQHKRAMQDMQLLWEKAVQQHQHGYDSDEEVDSELGTWEHQLRRMEMDKTREWAEQLTKMGRGKHFIGDFLPPDELEKFMETFKALKEGREPDYSEYKEFKLTVENIGYQMLMKMGWKEGEGLGSEGQGIKNPVNKGTTTVDGAGFGIDRPAELSKEDDEYEAFRKRMMLAYRFRPNPLNNPRRPYY
